Some test systems named below: OR2B8 Indel clone 1076; OR2C1 C149W clone 1282; OR2C1 clone 1406; OR2C1 clone 1407; OR2D2 clone 1235; OR2D3 L66I clone 1381; OR2F1 clone 1082; OR2F2 A98V clone 1087; OR2G2 clone 1385; OR2G3 clone 1328; OR2G3 clone 1382; OR2G6 clone 1487; OR2H1 clone 1393; OR2H2 clone 1066; OR2J2 T111A clone 1073.
Experiment in all cases: odorant receptor activation (CRE luciferase / Renilla) (fold of no-odor wells); higher = more activation
Holding throughout (conditions): 100 µM

The test system of experiment [1] is OR2C1 G16S/C149W/R229H clone 1408.
The subject of experiment [2] is OR2C1 P58S/C149W clone 1409.
The subject of experiment [3] is OR2C3 T20A/P68S/L289V clone 1454.
Experiment [4] concerns OR2G2 P24A/V120L/R236G clone 1349.
Experiment [5] relates to OR2H2 L30F/A48V clone 1061.

Structures are written as SMILES. Where “and” joins values, the source holds several entries; their conditions need not be identical. Equal values may be shown once. The list shows a part of the results. Each value is one well over the wells without odorant, computed here; the data are noisy.

As to `CCCCOC(C)=O` [butyl acetate], the odorant receptor activation with OR2B8 Indel clone 1076 was determined as 1.31; in the experiment on OR2C1 C149W clone 1282, 0.814; in experiment [1], 0.381; in experiment [2], 0.32; in the experiment with OR2C1 clone 1406, 0.409; in the experiment with OR2C1 clone 1407, 0.328. Moreover, the odorant receptor activation in experiment [3] turned out to be 1.27; in the experiment on OR2D2 clone 1235 it was 0.722; in the experiment with OR2D3 L66I clone 1381, 0.284; with OR2F1 clone 1082, 1.08; in the experiment on OR2F2 A98V clone 1087 it was 1.22; in experiment [4], 0.734. Moreover, the odorant receptor activation in the experiment on OR2G2 clone 1385 was found to be 0.155; with OR2G3 clone 1328, 0.828; with OR2G3 clone 1382 it was 0.241; in the experiment with OR2G6 clone 1487 it was 1.05; with OR2H1 clone 1393, 0.173; in experiment [5], 1.19. For the same compound, the odorant receptor activation in the experiment on OR2H2 clone 1066 was determined as 1.17; with OR2J2 T111A clone 1073, 0.943.

For `CS` [methanethiol], the odorant receptor activation with OR2B8 Indel clone 1076 turned out to be 1.02; in the experiment with OR2C1 C149W clone 1282, 1.12; in experiment [1], 0.669; in [2], 0.813; with OR2C1 clone 1406, 0.874; in the experiment with OR2C1 clone 1407 it was 1.54. In addition, the odorant receptor activation is 0.608 in experiment [3]; 0.818 with OR2D2 clone 1235; 0.701 in the experiment on OR2D3 L66I clone 1381; 0.903 in the experiment on OR2F1 clone 1082; 1.02 in the experiment with OR2F2 A98V clone 1087; 0.836 in experiment [4]. The odorant receptor activation in the experiment on OR2G2 clone 1385 worked out at 0.999; with OR2G3 clone 1328 it was 1.02; with OR2G3 clone 1382 it was 0.884; with OR2G6 clone 1487, 0.743; in the experiment with OR2H1 clone 1393, 0.845; in experiment [5] it was 0.986. Further, the odorant receptor activation in the experiment on OR2H2 clone 1066 turned out to be 1.55; in the experiment with OR2J2 T111A clone 1073, 1.03.

With `CCOc1cc(C=O)ccc1O` [ethyl vanillin], the odorant receptor activation was 2.24 and 0.915 in the experiment on OR2B8 Indel clone 1076; 1.17 and 1.04 in the experiment with OR2C1 C149W clone 1282; 1.37 and 1.1 in experiment [1]; 1.3 and 1.11 in experiment [2]; 1.13 and 1.03 with OR2C1 clone 1406; 1.13 in the experiment with OR2C1 clone 1407. For the same compound, the odorant receptor activation in experiment [3] is 0.697; in the experiment with OR2D2 clone 1235 it was 0.93; in the experiment with OR2D3 L66I clone 1381 it was 0.891 and 1.16; in the experiment on OR2F1 clone 1082, 1.35 and 1.15; in the experiment on OR2F2 A98V clone 1087, 0.533 and 1.18; in experiment [4], 1.24 and 2.28 and 1.01. For the same compound, the odorant receptor activation with OR2G2 clone 1385 was 1.11 and 1.2; in the experiment with OR2G3 clone 1328 it was 1.1 and 1.21; in the experiment on OR2G3 clone 1382 it was 1.02 and 1.29; in the experiment with OR2G6 clone 1487, 1.1 and 2.46 and 1.03; with OR2H1 clone 1393, 1.16 and 1.39; in experiment [5] it was 1.41 and 1.04. Also, in the experiment on OR2H2 clone 1066, the odorant receptor activation was 1.07 and 1.31.

Regarding `CCC(C)=O` [2-butanone], the odorant receptor activation in the experiment on OR2B8 Indel clone 1076 was 3.65; with OR2C1 C149W clone 1282, 1.24; in experiment [1], 1.3; in [2], 1.39; in the experiment on OR2C1 clone 1406, 1.26; with OR2C1 clone 1407, 0.917. Further, the odorant receptor activation is 1.42 in experiment [3]; 0.745 with OR2D2 clone 1235; 0.494 in the experiment on OR2D3 L66I clone 1381; 2.51 in the experiment on OR2F1 clone 1082; 17.3 with OR2F2 A98V clone 1087; 0.979 in experiment [4]. The odorant receptor activation with OR2G2 clone 1385 was determined as 1.9; in the experiment with OR2G3 clone 1328, 0.908; with OR2G3 clone 1382 it was 1.14; in the experiment on OR2G6 clone 1487 it was 0.857; in the experiment on OR2H1 clone 1393, 1.59; in [5], 2.43. Further, the odorant receptor activation in the experiment with OR2H2 clone 1066 was found to be 4.05; in the experiment with OR2J2 T111A clone 1073 it was 1.99.

Values taken from the odorant receptor screen of Mainland et al. (2015).
